We go through one substance from article PMC11755246.

By UniProt entry, the sequences of proteins in these tests, tags left out.
UniProt Q86U44: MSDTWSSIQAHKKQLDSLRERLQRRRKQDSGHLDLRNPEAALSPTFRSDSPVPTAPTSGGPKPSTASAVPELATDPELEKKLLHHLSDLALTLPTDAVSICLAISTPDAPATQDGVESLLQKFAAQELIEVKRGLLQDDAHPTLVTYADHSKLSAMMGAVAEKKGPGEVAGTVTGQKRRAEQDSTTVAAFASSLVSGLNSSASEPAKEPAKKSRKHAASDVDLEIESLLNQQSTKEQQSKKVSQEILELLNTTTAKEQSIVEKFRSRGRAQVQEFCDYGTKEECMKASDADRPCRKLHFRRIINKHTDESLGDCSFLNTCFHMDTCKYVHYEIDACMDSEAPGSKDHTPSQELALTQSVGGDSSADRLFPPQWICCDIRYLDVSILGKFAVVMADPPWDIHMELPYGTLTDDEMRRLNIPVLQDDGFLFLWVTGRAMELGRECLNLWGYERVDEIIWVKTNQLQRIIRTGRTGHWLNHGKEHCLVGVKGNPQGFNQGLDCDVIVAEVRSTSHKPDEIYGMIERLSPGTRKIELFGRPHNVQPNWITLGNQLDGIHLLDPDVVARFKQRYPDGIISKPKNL

No constants are given. Whether binding was seen depends on the method and setting. Binding seen in cells or lysates may run through a third protein. Some results given as binding are weak or reduced against the parent protein; the word gives no strength.

The target of this test is T1, PIWIL4 (human (endogenous in HMEC-1)) (UniProt Q7Z3Z4).
T1 sequence: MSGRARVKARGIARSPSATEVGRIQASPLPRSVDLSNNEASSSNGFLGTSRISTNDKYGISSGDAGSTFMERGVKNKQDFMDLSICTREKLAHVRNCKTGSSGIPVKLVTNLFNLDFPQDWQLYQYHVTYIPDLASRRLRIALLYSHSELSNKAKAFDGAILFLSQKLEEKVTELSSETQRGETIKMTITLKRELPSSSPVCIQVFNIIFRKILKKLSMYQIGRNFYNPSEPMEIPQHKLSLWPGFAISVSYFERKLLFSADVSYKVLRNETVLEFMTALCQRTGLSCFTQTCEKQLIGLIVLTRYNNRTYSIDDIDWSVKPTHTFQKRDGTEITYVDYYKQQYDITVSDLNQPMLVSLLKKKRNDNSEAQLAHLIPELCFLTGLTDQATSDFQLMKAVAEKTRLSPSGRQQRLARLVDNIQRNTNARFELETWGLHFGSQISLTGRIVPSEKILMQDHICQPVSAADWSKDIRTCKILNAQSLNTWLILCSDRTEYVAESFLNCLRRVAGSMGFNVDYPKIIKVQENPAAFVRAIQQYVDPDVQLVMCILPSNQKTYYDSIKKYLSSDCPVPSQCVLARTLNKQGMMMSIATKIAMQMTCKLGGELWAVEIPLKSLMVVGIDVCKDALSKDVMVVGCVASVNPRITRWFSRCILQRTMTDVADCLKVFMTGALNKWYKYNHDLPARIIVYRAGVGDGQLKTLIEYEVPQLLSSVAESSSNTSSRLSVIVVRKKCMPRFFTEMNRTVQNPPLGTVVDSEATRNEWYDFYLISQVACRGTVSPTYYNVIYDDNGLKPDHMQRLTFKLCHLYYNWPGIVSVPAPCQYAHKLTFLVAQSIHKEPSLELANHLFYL
The test can be described thus: co-IP; lysates of HMEC-1 cells treated with conditioned medium from MDA-MB-231 cells (also from MDA-MB-231 cells with piR-31115 knockdown: binding diminished); immunoprecipitation with anti-PIWIL4 antibody on Protein A+G magnetic beads, western blot; IgG as negative control. Background: A western blot detects proteins with antibodies after separation by electrophoresis.

As to METTL3 (from UniProt Q86U44 1-580), the binding result is listed as “binds”.
